{
  "sequences": {"note": "Protein sequences, listed by entry. Tags and fused reporters are not part of them. Lines headed by an entry give the natural chain unless they say otherwise; changes in a name come on top.", "UniProt Q9Z0F7, whole entry": "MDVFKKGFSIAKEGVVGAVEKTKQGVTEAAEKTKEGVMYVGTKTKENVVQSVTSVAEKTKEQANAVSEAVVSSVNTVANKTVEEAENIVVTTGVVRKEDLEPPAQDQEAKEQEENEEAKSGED", "UniProt S4R1M9": "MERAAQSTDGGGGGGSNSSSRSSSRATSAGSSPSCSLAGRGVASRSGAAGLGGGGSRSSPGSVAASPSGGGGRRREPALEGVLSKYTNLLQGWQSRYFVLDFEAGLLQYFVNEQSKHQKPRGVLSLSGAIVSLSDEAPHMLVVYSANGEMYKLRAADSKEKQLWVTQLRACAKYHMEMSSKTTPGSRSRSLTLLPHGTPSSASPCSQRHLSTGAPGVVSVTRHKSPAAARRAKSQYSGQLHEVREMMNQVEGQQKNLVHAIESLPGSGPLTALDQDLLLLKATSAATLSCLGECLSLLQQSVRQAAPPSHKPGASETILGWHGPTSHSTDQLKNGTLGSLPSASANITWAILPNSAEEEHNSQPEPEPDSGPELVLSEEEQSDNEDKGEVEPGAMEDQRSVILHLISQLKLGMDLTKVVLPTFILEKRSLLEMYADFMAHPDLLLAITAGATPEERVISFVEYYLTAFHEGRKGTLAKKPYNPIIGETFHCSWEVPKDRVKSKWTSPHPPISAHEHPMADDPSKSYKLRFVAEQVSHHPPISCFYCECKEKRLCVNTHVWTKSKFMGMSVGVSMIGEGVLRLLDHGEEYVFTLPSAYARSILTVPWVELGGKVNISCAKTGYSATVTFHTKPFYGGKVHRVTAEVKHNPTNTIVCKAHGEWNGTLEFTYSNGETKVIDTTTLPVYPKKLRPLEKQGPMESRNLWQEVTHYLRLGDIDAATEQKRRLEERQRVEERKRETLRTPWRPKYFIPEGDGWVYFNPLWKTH", "UniProt Q9Z1T2": "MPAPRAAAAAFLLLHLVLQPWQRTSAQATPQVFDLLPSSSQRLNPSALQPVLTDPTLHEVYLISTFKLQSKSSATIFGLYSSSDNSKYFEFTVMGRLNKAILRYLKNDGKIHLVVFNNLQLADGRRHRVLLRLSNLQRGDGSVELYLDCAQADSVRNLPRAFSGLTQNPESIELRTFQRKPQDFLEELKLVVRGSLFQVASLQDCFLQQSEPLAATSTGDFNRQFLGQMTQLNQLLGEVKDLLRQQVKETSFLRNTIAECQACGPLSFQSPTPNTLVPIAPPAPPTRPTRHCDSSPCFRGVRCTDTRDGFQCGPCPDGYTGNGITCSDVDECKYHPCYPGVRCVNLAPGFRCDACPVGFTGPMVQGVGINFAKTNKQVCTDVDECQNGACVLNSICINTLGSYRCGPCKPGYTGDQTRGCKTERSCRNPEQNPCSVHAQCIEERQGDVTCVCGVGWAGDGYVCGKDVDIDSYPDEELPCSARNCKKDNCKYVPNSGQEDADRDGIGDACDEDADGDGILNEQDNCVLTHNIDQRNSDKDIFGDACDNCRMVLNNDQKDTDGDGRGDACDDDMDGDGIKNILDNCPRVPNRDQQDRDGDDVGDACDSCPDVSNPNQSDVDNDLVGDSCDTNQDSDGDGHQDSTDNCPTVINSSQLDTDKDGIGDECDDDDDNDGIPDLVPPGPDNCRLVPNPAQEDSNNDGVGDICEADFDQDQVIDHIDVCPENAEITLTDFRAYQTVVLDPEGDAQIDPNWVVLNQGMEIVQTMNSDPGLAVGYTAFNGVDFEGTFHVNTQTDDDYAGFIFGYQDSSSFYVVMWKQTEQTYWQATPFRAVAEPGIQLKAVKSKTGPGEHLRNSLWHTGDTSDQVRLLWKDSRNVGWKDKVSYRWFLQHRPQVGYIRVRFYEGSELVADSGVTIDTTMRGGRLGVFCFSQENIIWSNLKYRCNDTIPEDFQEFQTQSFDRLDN", "UniProt Q9Z2E1, whole entry": "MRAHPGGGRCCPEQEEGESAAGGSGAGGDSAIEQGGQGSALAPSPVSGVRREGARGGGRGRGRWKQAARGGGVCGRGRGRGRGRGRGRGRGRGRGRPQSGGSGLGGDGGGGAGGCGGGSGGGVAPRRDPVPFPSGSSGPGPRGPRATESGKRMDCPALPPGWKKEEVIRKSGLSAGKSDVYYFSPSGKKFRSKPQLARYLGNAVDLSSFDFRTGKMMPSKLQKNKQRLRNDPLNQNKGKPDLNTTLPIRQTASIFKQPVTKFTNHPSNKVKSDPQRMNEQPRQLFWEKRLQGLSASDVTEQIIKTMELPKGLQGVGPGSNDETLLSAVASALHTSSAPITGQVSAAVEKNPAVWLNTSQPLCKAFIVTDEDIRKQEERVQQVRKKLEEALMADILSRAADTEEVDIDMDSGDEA", "UniProt Q9Z2D3": "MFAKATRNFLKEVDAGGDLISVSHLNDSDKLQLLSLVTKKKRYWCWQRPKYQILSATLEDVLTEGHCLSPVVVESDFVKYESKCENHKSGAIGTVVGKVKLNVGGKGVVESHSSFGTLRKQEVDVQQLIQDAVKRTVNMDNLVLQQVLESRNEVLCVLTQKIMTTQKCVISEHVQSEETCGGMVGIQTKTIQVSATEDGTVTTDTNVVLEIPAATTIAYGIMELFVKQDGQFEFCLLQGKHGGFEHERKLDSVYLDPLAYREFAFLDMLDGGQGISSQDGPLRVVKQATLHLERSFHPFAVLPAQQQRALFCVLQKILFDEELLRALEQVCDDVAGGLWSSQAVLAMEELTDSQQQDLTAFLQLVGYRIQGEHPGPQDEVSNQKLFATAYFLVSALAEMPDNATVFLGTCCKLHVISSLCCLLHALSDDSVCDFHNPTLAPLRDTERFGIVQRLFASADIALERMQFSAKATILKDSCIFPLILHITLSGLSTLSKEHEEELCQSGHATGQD", "UniProt Q9Z2L7": "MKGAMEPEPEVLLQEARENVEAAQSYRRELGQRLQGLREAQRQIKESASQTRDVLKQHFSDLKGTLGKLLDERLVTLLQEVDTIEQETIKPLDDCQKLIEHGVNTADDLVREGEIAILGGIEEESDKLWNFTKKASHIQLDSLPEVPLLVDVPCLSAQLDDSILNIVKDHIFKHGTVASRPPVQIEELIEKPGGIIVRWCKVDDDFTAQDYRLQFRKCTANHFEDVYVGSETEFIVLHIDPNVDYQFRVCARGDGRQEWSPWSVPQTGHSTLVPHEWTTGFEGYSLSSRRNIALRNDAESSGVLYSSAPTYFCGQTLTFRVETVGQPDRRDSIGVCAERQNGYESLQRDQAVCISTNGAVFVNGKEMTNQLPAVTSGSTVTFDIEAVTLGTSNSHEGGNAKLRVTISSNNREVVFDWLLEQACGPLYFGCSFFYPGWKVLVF", "UniProt Q9Z211": "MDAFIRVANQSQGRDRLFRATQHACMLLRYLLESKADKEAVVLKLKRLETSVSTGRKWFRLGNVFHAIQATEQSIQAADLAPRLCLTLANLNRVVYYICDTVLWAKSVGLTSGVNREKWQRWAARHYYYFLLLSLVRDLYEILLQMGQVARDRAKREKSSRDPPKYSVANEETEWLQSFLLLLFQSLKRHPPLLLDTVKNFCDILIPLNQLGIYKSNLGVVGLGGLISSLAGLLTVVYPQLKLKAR", "UniProt Q9Z110": "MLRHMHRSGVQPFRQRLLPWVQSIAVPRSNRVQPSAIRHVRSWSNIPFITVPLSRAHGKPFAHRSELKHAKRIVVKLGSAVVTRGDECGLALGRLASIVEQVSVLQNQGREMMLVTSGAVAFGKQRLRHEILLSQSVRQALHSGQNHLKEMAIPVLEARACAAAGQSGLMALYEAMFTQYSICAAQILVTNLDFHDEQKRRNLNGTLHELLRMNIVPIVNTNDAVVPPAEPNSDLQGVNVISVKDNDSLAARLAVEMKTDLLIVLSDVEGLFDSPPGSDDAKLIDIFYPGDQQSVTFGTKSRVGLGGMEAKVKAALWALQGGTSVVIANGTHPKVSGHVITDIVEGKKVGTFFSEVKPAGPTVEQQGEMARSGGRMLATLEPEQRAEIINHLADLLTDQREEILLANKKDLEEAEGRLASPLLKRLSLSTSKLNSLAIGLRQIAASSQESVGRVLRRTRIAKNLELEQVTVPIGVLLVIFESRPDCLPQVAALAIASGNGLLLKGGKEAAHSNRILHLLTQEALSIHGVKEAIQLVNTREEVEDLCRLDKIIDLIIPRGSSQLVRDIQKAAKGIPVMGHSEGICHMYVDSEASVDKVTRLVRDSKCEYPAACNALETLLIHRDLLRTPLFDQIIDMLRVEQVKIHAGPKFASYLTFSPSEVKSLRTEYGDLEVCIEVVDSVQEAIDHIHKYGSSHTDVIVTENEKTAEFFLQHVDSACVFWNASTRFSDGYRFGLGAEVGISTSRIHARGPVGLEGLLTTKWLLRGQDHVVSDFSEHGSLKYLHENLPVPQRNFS", "UniProt Q9WVF7": "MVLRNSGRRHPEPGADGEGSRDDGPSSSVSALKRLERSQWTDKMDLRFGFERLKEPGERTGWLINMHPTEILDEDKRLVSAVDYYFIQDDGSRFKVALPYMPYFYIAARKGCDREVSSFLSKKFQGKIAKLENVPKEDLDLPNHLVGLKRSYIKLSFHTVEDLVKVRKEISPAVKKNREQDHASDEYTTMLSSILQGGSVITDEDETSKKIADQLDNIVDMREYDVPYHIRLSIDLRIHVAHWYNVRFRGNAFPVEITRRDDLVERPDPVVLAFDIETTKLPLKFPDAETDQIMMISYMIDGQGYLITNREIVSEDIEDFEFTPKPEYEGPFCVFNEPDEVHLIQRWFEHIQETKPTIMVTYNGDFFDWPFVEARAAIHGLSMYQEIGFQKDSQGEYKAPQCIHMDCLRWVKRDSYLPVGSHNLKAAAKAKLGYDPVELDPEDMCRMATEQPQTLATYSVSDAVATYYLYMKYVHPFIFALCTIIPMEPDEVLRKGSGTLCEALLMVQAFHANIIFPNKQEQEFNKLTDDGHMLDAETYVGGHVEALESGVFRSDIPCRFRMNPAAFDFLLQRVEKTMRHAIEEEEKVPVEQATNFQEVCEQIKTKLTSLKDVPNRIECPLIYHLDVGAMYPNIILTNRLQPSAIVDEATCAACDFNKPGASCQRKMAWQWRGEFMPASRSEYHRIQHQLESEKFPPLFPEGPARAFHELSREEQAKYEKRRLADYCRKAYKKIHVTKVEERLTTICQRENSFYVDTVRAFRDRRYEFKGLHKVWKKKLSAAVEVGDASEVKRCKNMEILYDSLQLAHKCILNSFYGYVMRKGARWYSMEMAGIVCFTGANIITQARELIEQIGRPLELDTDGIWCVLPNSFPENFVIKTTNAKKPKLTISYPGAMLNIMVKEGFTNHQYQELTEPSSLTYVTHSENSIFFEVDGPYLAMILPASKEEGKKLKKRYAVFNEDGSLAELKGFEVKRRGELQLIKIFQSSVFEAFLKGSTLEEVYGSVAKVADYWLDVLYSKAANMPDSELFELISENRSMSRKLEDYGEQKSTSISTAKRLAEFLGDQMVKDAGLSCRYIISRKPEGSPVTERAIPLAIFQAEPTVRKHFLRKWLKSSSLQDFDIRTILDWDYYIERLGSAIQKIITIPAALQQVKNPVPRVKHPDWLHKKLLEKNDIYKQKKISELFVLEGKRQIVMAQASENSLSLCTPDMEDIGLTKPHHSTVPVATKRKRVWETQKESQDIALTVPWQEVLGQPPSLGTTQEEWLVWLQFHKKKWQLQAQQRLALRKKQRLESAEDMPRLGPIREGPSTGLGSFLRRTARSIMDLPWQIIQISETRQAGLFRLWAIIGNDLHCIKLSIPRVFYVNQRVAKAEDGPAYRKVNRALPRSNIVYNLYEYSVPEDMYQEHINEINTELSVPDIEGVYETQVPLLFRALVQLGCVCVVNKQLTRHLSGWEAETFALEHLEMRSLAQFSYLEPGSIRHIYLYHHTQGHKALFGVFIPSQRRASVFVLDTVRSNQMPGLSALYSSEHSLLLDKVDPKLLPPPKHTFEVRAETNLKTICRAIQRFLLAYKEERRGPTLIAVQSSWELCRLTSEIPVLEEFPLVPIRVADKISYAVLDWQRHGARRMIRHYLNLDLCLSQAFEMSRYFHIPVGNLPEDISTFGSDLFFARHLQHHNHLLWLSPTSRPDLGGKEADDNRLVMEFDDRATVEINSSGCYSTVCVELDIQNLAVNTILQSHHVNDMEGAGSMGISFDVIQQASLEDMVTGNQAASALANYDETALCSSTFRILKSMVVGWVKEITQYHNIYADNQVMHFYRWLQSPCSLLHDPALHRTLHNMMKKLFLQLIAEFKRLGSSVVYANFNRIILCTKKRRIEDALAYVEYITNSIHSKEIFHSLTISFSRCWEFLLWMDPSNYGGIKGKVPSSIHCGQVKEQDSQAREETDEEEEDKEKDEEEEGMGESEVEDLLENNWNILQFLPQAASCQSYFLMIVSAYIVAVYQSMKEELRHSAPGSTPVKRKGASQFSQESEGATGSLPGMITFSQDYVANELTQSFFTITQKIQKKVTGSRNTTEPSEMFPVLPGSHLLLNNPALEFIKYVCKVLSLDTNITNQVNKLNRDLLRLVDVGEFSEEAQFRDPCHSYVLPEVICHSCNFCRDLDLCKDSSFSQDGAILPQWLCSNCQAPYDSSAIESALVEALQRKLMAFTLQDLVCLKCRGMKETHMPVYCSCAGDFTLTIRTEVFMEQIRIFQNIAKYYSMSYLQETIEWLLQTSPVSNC"},
  "source": "the supplement of paper PMC12819154",
  "about": "“High-throughput peptide-centric local stability assay extends protein–ligand identification to membrane proteins, tissues and bacteria” (Nature Structural & Molecular Biology, 2025)",
  "note": "Some of the results follow. Small differences around the control level are noise.",
  "data": [
    {"compound": "CN[C@@H]1C[C@H]2O[C@@](C)([C@@H]1OC)n1c3ccccc3c3c4c(c5c6ccccc6n2c5c31)C(=O)NC4 [staurosporine]", "assay": "log2 fold change of tryptic peptide abundance, ligand vs vehicle (limited proteolysis) (log2 ratio); higher = more trypsin-susceptible (destabilized)", "conditions": "ligand concentration: 20 uM; sample: mouse liver crude lysate; replicate design: treated separately", "values": [
      {"target": "UniProt Q9Z1T6 (peptide sequence: LVSVQEDAGKSPAR, peptide start residue: 289)", "log2 fold change": -0.282},
      {"target": "UniProt Q9Z2V5 (peptide sequence: TIAALPGKESTLGQAK, peptide start residue: 881)", "log2 fold change": -0.259},
      {"target": "UniProt Q9Z0F7 (peptide sequence: EGVVGAVEK, peptide start residue: 13)", "log2 fold change": 0.0715},
      {"target": "UniProt Q9Z206 (peptide sequence: VQDFLQR, peptide start residue: 233)", "log2 fold change": -0.0421},
      {"target": "UniProt Q9WVQ0 (peptide sequence: KLNMELK, peptide start residue: 805)", "log2 fold change": 0.159},
      {"target": "UniProt Q9Z0S9 (peptide sequence: DQQKDAEGEGLSATTLLPK, peptide start residue: 6)", "log2 fold change": -0.187},
      {"target": "UniProt Q9Z2H5 (peptide sequence: DNHLAIER, peptide start residue: 596)", "log2 fold change": -0.716},
      {"target": "UniProt Q9Z131 (peptide sequence: AVEDSKPYWEAR, peptide start residue: 97)", "log2 fold change": -0.211},
      {"target": "UniProt Q9Z1E3 (peptide sequence: HDSGLDSMKDEEYEQMVK, peptide start residue: 30)", "log2 fold change": 0.203},
      {"target": "UniProt S4R1M9 (peptide sequence: SSPGSVAASPSGGGGR, peptide start residue: 58)", "log2 fold change": -0.199},
      {"target": "UniProt Q9Z0U1 (peptide sequence: VFLRPSPEDEAIYGPNTK, peptide start residue: 474)", "log2 fold change": -0.495},
      {"target": "UniProt Q9Z2G9 (peptide sequence: SKAGAEGFVR, peptide start residue: 97)", "log2 fold change": -0.35},
      {"target": "UniProt Q9Z1T2 (peptide sequence: NSDKDIFGDACDNCR, peptide start residue: 535)", "log2 fold change": -0.263},
      {"target": "UniProt Q9Z2D8 (peptide sequence: DVFYYSPSGK, peptide start residue: 32)", "log2 fold change": -0.178},
      {"target": "UniProt Q9Z2E1 (peptide sequence: GKPDLNTTLPIR, peptide start residue: 238)", "log2 fold change": 0.238},
      {"target": "UniProt Q9WVR4 (peptide sequence: GGSGGGSDKAGYTTDESSSSSLHTTR, peptide start residue: 400)", "log2 fold change": 0.468},
      {"target": "UniProt Q9Z1F9 (peptide sequence: LFKDDIR, peptide start residue: 258)", "log2 fold change": 0.31},
      {"target": "UniProt Q9Z2D3 (peptide sequence: SGAIGTVVGK, peptide start residue: 89)", "log2 fold change": 0.105},
      {"target": "UniProt Q9Z0G7 (peptide sequence: SNCMPASAVPQK, peptide start residue: 285)", "log2 fold change": -0.464},
      {"target": "UniProt Q9Z1N5 (peptide sequence: HFILDECDK, peptide start residue: 192)", "log2 fold change": -0.337},
      {"target": "UniProt Q9Z108 (peptide sequence: AQGFQVEYK, peptide start residue: 409)", "log2 fold change": 0.141},
      {"target": "UniProt Q9Z2L7 (peptide sequence: ENVEAAQSYRR, peptide start residue: 18)", "log2 fold change": 0.0995},
      {"target": "UniProt Q9WVL1 (peptide sequence: YYEHVDINKR, peptide start residue: 19)", "log2 fold change": 0.105},
      {"target": "UniProt Q9Z205 (peptide sequence: FLLDWGADPHILAK, peptide start residue: 151)", "log2 fold change": -0.807},
      {"target": "UniProt Q9Z211 (peptide sequence: ADKEAVVLK, peptide start residue: 36)", "log2 fold change": -0.327},
      {"target": "UniProt Q9Z2E2 (peptide sequence: KQQVGLQR, peptide start residue: 97)", "log2 fold change": -0.517},
      {"target": "UniProt Q9Z2E9 (peptide sequence: DNSHHGAPR, peptide start residue: 278)", "log2 fold change": 0.0619},
      {"target": "UniProt Q9Z1E4 (peptide sequence: VGGIYTVLQTK, peptide start residue: 40)", "log2 fold change": 0.208},
      {"target": "UniProt Q9Z0Y1 (peptide sequence: YLDPEYIDR, peptide start residue: 67)", "log2 fold change": 0.0881},
      {"target": "UniProt Q9Z110 (peptide sequence: GQDHVVSDFSEHGSLK, peptide start residue: 766)", "log2 fold change": -0.477},
      {"target": "UniProt Q9WVF7 (peptide sequence: RYEFKGLHK, peptide start residue: 765)", "log2 fold change": 0.411}
    ]}
  ]
}
